The experiment is described as follows: qHTS Assay for Lipid Storage Modulators in Drosophila S3 Cells.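 On cell number change: cells counted by Cell Tracker Red CMTPX staining in the red channel.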 As to conditions: BODIPY lipid droplet fluorescence, 18-24 h; for cell number change: measured here: cell count max response, cells fed with added oleic acid. The procedure, abridged:
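Drosophila S3 cells got compounds at several concentrations plus oleic acid (400 uM solution). Laser-scanning cytometry with 488 nm excitation read lipid droplets at 500-530 nm and cells at 575-640 nm. Percent activity was relative to 20 uM Triacsin C.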
Background: In qHTS, concentration-response curves come from the screen itself.

[1] abbreviates: measured here: cell number channel AC50, cells fed with added oleic acid.
Setting [2] is: measured here: lipid fluorescence (Fed channel) AC50, cells fed with added oleic acid.

Some of the results follow. These are further read-outs of the screen, such as a control signal, another cell line or another target. No call is given for them. Compounds called inactive in the main read-out are mostly missing here. Potencies come from curve fits of mixed quality, noted in brackets.

Regarding `COc1cc2c(cc1OC)CN(C(=O)CCCN1C(=O)c3ccccc3C1=O)CC2`, the cell number change was -0.534%. Further, the AC50 (commonly the concentration giving half of the maximal activity seen) under setting [1] was 0.00517 µM [falling, full curve, poor fit]. Also, the AC50 under setting [2] is 6.51 µM [rising, partial curve].
As to `C=CCSc1nnc(NC(=O)c2nc(SCC)ncc2Cl)s1`, under setting [2], the AC50 is 0.731 µM [falling, single point].
For the molecule `Cc1cc(C(=O)NC2CCCc3c2cnn3-c2ccc(C(C)(C)C)cc2)nn1C` (stereo unspecified), the cell number change is -43.1%. Moreover, under setting [1], the AC50 was 2.59 µM [falling, full curve].
For the molecule `COc1ccccc1Nc1cc(N2CCOCC2)c2nonc2c1[N+](=O)[O-]`, the cell number change is 0.791%.
As to `CCOc1ccc(NC(=S)N(CCc2c(C)[nH]c3ccc(C)cc23)Cc2cccnc2)cc1`, the cell number change was determined as 5.83%. Also, the AC50 under setting [2] was 0.58 µM [rising, full curve].
On to `CC1(C)CC(=O)C2=C(C1)N(CC1CCCO1)C(=O)C2(O)C(F)(F)F` (stereo unspecified), for which the cell number change is -35.9%. Besides, the AC50 under setting [1] was 1.84 µM [falling, full curve, poor fit]. The AC50 under setting [2] is 29.1 µM [falling, single point].
With `O=C(c1ccccc1C(=O)N1CCN(c2ccc(F)cc2)CC1)N1CCN(c2ccc(F)cc2)CC1`, the AC50 under setting [2] is 1.64 µM [falling, partial curve].
Turning to `Cc1ccc(S(=O)(=O)N2CCCC2)cc1C(=O)NCc1ccccn1`, the cell number change is 16.7%. The AC50 under setting [2] was 8.2 µM [falling, partial curve, poor fit].
On to `CN(c1ncc(C(F)(F)F)cc1Cl)n1cc(C(N)=O)c2ccccc2c1=O`, for which, under setting [2], the AC50 was 1.16 µM [rising, full curve].
For `C=CCNC(=O)Cc1c(OC)ccc2cc(Br)ccc12`, the cell number change worked out at 26.8%.
Consider `CNc1ccccc1C(C)(C)c1cc(-c2ccco2)n[nH]1`, for which the cell number change was -33%. In addition, the AC50 under setting [1] is 20.6 µM [falling, single point]. Also, the AC50 under setting [2] is 23.1 µM [falling, single point].
As to `CCOC(=O)Cn1c(=O)sc2ccccc21`, the cell number change stood at 3.67%.
`C=C(C)COc1ccc(-c2nc(N)ncc2-c2ccccc2OC)c(O)c1`: the cell number change was -27.1%. Further, the AC50 under setting [2] is 32.6 µM [falling, single point].
In the case of `CCOC(=O)c1c([N+](=O)[O-])c(C)[nH]c(=O)c1C#N`, the cell number change was -44.6%. Further, under setting [1], the AC50 was 29.1 µM [falling, single point]. The AC50 under setting [2] was 29.1 µM [falling, single point].
Consider `CC(C)Cn1c(SC(C)C(=O)NCC2CCCO2)nc2ccc(Cl)cc2c1=O` (stereo unspecified), for which the cell number change was found to be 4.23%. Also, the AC50 under setting [2] is 3.66 µM [falling, single point].
Consider `CCN1CCN(S(=O)(=O)c2ccc(Cl)c(C(=O)Nc3nnc(C)s3)c2)CC1`, for which the cell number change is -9.64%.
`CN=C1SC(CC(=O)Nc2cccc(Cl)c2Cl)C(=O)N1C` (stereo unspecified): the cell number change was 2.93%.
Regarding `CCOc1ccccc1N(CC(=O)Nc1ccc(OC)c(OC)c1)S(=O)(=O)c1ccccc1`, the cell number change is -26.5%. Moreover, under setting [2], the AC50 was 29.1 µM [falling, single point].
Turning to `COc1ccc(N2CCN(C(=O)Nc3ccc(S(=O)(=O)N(C)C)cc3)CC2)cc1`, the cell number change is 42.8%. Moreover, under setting [1], the AC50 was 16.4 µM [rising, single point]. Besides, under setting [2], the AC50 was 18.4 µM [rising, partial curve].
Take `Cc1ccc(-c2n[nH]c(=O)c3ccccc23)cc1S(=O)(=O)NCC1CCCO1` (stereo unspecified): the cell number change worked out at 21.8%. Under setting [2], the AC50 was 6.51 µM [falling, single point].
For `COc1ccc(Cl)cc1C(=O)NNC(=O)CSc1nnnn1C`, the AC50 is 0.146 µM [rising, partial curve, poor fit] under setting [1] and 0.116 µM [rising, partial curve, poor fit] under setting [2].
For the molecule `COc1cc(C(C(=O)NC2CCCC2)N(C(=O)c2snc(C(N)=O)c2N)c2ccccc2)cc(OC)c1OC` (stereo unspecified), the cell number change is -35.5%. Besides, the AC50 under setting [1] is 0.651 µM [falling, partial curve, poor fit].
Consider `CCOC(=O)c1cc(-c2ccc(C)cc2)n(CC(=O)NCc2ccco2)c1C`, for which, under setting [2], the AC50 is 2.91 µM [rising, single point].
Turning to `Cc1nc(-c2ccc(Cl)cc2)sc1C1(C)CC(c2ccc(C#N)cc2)=NO1` (stereo unspecified), the cell number change stood at 13.3%. The AC50 under setting [2] was 5.17 µM [rising, full curve, poor fit].
As for `Cc1cc(Br)cc(/C=N/NC(=O)c2ccc3c(c2)OCO3)c1O`, the cell number change is -11.3%.
`CCOc1ccc(CSC(CC(=O)O)C(=O)O)cc1` (stereo unspecified): the cell number change was 37.8%. Under setting [1], the AC50 is 14.6 µM [rising, single point].
With `COc1ccc(CNC(=O)C2CCN(C(=O)c3ccccc3)CC2)cc1`, the cell number change was 6.74%. Also, the AC50 under setting [2] was 13 µM [rising, partial curve, poor fit].
In the case of `O=C(O)C1CC(c2ccccc2F)=NO1` (stereo unspecified), the cell number change is -37.6%. Further, under setting [1], the AC50 was 3.66 µM [falling, full curve]. In addition, the half-maximal activity concentration (AC50) under setting [2] is 20.6 µM [falling, single point].
`Cc1ccn2cc(-c3cccc(NC(=O)c4cccs4)c3)nc2c1`: the cell number change amounted to 46%. Besides, the AC50 under setting [1] is 1.64 µM [rising, partial curve]. Also, under setting [2], the AC50 was 29.1 µM [rising, single point].
On to `CC(C)c1ccc(CN(C(=O)C2COc3ccccc3O2)C2CCS(=O)(=O)C2)cc1` (stereo unspecified), for which the cell number change was -24.1%. Also, under setting [2], the concentration at half-maximal activity (AC50) is 6.51 µM [rising, single point].
`O=[N+]([O-])c1cc([N+](=O)[O-])c(Oc2ccc(Cl)c3cccnc23)cc1NN1CCCCC1`: the cell number change was -27.8%.
Regarding `CC(=O)OCC(OC(C)=O)C(OC(C)=O)C(OC(C)=O)C(=O)Nc1ccccc1C` (stereo unspecified), the cell number change was 12.1%. In addition, the AC50 under setting [1] was 6.51 µM [rising, single point].
As to `O=C(CCS(=O)(=O)CCN1CCOCC1)NCNC(=O)CCS(=O)(=O)CCN1CCOCC1`, the cell number change was 4.62%. Moreover, under setting [2], the half-maximal activity concentration (AC50) is 25.9 µM [rising, single point].
`O=C(NC1=NCCS1)c1cc(-c2cccnc2)nc2ccccc12`: the AC50 under setting [1] is 0.146 µM [rising, full curve, poor fit].
As for `Oc1ccc(C[C@H]2CNCCN2CCCCC2CCCCC2)cc1`, the cell number change was -51.5%. Under setting [1], the concentration at half-maximal activity (AC50) is 20.6 µM [falling, single point].
For `CN(C)CCCNC(=S)N(CCCO)Cc1cc2cc3c(cc2[nH]c1=O)OCO3`, the cell number change was 20.4%. Moreover, under setting [2], the AC50 was 3.26 µM [rising, partial curve].
`C=CCn1c(=S)[nH]c2nc3c(cc2c1=O)CCCC3`: the AC50 under setting [1] is 0.13 µM [rising, full curve, poor fit] and the AC50 under setting [2] was 0.58 µM [rising, single point].
Regarding `CCCCn1c(=O)c(CCC(=O)OCC(=O)Nc2cc(Cl)ccc2OC)nc2ccccc21`, the cell number change is 24.2%. The AC50 under setting [2] was 5.8 µM [rising, partial curve].

The values are drawn from PubChem BioAssay AID2685 (National Center for Advancing Translational Sciences (NCATS), 2010).
